Test results published in the supplement of paper PMC10849652.
The other results are listed elsewhere or left out.

Sequences of proteins named here, by UniProt entry; tags and fusion partners are left off. A change or cut given only in a name is not applied to a line headed by its entry.
UniProt P14621: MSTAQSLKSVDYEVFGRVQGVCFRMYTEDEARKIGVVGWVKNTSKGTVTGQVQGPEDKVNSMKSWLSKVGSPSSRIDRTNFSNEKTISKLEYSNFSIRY
UniProt Q8WV93: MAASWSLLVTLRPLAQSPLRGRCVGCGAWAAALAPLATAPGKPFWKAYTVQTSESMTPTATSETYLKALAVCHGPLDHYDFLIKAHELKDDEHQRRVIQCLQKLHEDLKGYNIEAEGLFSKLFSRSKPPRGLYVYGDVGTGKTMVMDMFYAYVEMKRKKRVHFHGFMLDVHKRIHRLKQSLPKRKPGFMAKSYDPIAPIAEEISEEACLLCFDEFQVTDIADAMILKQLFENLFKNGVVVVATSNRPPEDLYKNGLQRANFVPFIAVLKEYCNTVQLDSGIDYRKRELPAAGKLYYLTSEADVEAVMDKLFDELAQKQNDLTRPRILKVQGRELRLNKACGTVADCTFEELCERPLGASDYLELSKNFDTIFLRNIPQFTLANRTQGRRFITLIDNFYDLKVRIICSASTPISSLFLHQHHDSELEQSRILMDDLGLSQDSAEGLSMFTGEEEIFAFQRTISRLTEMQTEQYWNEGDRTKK
UniProt Q9UKU0: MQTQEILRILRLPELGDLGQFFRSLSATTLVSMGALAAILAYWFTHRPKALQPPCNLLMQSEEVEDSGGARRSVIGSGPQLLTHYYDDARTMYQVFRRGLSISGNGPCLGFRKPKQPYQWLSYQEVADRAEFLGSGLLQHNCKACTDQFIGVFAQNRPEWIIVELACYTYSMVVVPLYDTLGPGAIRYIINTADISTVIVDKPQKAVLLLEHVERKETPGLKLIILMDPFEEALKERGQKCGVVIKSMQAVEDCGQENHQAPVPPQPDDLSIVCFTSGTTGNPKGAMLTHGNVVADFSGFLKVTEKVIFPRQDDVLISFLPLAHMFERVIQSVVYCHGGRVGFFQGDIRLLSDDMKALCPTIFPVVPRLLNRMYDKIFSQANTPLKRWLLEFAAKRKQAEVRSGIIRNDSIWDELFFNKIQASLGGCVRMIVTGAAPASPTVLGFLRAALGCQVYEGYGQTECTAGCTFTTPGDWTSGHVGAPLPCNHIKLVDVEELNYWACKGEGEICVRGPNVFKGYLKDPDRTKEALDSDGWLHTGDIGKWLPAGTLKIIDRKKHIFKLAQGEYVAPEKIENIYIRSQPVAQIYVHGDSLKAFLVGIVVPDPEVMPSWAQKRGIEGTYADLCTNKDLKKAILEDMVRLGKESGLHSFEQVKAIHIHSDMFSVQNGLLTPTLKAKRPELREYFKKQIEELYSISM
UniProt Q8TED9: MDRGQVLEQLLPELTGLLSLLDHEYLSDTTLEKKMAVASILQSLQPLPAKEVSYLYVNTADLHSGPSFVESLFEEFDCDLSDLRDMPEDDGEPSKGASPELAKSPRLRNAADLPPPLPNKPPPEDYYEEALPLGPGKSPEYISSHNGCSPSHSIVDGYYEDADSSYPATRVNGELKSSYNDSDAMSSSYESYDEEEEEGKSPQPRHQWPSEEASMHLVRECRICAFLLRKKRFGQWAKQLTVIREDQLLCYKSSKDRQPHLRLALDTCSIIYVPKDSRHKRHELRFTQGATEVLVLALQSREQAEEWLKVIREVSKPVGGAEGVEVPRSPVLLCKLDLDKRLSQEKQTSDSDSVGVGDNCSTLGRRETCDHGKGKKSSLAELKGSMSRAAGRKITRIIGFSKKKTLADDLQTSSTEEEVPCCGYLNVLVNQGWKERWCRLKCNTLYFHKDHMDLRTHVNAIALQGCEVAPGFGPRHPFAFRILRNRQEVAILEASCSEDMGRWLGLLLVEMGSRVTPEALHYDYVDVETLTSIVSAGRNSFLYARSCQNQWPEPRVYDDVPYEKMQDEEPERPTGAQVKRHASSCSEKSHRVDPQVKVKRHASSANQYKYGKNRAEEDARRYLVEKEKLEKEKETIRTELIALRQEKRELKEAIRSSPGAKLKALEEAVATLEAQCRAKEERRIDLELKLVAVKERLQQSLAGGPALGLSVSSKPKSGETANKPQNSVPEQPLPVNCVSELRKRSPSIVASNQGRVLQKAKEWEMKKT
UniProt Q13155: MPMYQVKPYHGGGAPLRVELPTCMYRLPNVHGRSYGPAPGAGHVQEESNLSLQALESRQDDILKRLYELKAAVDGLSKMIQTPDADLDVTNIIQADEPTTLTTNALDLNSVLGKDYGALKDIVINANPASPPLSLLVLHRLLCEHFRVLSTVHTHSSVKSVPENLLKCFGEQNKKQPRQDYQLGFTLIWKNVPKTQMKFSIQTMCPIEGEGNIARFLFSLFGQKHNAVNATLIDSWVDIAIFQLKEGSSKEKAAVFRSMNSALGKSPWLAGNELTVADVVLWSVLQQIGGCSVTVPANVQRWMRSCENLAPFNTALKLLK
UniProt P55008: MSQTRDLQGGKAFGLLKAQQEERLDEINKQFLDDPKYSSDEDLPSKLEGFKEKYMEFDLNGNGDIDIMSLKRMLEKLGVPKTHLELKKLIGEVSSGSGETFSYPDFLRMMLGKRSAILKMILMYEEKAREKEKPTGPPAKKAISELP
UniProt Q9NZD4: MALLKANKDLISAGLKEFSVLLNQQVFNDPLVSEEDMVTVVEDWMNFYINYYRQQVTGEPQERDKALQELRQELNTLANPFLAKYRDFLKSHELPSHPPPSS
UniProt O95081: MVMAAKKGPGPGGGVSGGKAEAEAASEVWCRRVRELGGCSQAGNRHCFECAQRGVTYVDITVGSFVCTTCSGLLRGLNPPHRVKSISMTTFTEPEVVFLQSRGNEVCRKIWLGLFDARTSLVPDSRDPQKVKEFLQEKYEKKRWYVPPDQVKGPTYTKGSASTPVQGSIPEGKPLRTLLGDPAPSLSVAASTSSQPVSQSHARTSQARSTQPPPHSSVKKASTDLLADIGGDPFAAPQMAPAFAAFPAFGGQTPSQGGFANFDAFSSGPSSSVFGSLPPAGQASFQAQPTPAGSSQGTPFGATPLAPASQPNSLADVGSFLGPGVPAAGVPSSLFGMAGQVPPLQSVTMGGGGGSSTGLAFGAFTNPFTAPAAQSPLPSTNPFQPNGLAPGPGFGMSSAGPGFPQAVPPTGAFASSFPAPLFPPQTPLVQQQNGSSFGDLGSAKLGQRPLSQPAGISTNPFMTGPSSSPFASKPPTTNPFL
UniProt Q6UY14: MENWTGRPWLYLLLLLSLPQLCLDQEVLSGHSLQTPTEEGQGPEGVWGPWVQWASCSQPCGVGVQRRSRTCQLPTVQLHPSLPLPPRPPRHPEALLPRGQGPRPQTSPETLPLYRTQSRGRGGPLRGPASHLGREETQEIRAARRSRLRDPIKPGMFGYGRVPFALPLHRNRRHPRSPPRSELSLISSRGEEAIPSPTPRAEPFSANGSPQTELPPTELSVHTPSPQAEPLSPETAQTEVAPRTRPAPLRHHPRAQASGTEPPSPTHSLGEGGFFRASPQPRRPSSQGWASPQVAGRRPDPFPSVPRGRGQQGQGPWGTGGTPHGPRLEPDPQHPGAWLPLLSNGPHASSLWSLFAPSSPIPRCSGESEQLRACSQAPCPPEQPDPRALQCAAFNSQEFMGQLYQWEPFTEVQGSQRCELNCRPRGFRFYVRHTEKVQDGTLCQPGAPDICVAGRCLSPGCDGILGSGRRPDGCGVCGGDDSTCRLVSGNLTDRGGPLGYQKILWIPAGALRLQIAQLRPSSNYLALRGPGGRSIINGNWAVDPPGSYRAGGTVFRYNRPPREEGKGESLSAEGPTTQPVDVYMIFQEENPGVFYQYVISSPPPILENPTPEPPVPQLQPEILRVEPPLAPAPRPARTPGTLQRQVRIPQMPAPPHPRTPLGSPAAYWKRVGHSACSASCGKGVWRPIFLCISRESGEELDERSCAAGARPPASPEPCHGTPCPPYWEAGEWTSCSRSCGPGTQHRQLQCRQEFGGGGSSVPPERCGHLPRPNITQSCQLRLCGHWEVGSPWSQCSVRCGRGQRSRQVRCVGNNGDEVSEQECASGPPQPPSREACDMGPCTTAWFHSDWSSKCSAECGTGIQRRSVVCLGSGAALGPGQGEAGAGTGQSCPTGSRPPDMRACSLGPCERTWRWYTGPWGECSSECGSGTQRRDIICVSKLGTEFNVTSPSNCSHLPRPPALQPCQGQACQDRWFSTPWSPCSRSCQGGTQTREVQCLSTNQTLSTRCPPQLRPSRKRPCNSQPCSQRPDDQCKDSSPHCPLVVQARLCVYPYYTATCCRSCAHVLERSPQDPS
UniProt Q02040: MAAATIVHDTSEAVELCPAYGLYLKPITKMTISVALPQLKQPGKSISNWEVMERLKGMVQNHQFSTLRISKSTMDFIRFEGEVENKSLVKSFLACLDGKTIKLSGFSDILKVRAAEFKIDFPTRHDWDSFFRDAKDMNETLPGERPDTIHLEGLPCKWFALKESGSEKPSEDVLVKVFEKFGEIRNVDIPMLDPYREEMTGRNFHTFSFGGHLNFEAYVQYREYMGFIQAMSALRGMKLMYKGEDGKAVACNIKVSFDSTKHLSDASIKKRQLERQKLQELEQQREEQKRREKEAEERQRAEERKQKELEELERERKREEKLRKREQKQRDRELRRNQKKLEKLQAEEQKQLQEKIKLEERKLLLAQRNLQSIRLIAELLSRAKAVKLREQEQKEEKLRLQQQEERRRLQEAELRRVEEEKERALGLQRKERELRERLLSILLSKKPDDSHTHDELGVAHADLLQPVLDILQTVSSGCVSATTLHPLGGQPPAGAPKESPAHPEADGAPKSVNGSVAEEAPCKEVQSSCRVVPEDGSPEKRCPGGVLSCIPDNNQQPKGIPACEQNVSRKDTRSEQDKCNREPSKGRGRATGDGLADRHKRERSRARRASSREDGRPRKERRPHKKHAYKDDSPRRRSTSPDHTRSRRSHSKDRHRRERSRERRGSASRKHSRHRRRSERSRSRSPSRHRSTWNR
UniProt Q8NHP1: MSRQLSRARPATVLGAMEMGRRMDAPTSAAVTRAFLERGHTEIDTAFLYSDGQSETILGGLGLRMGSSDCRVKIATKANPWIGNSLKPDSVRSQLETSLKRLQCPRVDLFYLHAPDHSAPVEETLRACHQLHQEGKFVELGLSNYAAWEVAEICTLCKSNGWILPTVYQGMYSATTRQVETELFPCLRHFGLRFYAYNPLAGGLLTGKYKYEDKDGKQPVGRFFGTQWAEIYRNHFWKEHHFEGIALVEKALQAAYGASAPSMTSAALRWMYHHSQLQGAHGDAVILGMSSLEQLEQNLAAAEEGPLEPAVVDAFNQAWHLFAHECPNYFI
UniProt Q9Y6K8: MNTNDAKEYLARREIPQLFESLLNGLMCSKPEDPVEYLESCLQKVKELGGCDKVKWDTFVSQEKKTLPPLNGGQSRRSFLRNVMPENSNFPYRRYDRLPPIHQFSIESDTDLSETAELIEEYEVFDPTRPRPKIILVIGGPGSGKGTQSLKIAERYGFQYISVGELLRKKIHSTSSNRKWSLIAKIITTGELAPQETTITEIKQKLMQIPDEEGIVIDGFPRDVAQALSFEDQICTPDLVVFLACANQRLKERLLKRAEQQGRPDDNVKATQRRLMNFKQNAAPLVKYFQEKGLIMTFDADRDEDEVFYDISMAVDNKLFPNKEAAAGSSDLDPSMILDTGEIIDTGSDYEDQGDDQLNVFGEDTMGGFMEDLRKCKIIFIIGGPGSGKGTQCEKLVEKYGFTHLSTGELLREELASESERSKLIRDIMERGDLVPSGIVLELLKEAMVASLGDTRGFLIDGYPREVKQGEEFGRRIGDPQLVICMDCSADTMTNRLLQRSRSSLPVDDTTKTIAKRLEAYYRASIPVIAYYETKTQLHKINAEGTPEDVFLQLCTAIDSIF
UniProt P35611: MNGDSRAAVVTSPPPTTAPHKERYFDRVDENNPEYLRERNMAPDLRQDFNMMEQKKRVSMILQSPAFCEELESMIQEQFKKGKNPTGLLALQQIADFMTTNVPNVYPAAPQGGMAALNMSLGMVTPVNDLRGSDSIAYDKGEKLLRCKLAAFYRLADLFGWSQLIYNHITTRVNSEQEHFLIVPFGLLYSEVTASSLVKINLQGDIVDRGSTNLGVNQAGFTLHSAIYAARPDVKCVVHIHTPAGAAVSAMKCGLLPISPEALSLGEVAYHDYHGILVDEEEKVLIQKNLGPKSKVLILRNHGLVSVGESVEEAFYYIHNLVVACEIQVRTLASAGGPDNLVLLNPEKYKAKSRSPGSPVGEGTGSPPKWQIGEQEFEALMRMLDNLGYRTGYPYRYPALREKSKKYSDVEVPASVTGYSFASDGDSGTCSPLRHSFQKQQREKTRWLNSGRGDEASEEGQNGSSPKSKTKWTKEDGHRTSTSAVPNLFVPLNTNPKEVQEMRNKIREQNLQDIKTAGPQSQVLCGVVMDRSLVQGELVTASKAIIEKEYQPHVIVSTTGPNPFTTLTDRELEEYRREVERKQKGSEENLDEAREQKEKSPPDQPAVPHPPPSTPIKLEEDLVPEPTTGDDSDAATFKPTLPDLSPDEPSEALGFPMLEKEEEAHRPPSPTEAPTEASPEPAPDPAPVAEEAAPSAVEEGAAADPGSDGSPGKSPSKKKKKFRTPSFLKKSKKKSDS

How the values were obtained:
Assay in all cases: log2 fold change, soluble protein after heating vs DMSO (PISA); higher = thermal stabilisation; K562 lysate, 10 uM; active = over 0.2 and 3.5 SD of the protein, either way, in both replicates (recomputed)
lapatinib = compound: CS(=O)(=O)CCNCc1ccc(-c2ccc3ncnc(Nc4ccc(OCc5cccc(F)c5)c(Cl)c4)c3c2)o1 [lapatinib]
Outline: (§1)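 Thermal stability, expressed as log-two fold change relative to solvent controls, is given from duplicates. Crude K562 extract in PBS pH 7.4 with 1 mM MgCl2, at 1 mg/mL protein, was treated with 10 μM compound for 30 min and heated in aliquots for 3 min across 48°C-58°C. After pooling, adjustment to 0.5% NP-40 at 4°C and centrifugation at 21,000xg for 90 min, supernatant protein was measured by TMTpro 16plex LC-MS/MS with channel sums equalised.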

pictilisib = compound: CS(=O)(=O)N1CCN(Cc2cc3nc(-c4cccc5[nH]ncc45)nc(N4CCOCC4)c3s2)CC1 [pictilisib]
Outline: as §1

crizotinib = compound: C[C@@H](Oc1cc(-c2cnn(C3CCNCC3)c2)cnc1N)c1c(Cl)ccc(F)c1Cl [crizotinib]
Outline: as §1

[1] = compound: C[C@H](C1=CC=C(C=C1)C(=O)NC2=C3C=CNC3=NC=C2)N
Outline: as §1

gandotinib = compound: Cc1cc(Nc2cc(CN3CCOCC3)c3nc(C)c(Cc4ccc(Cl)cc4F)n3n2)n[nH]1 [gandotinib]
Outline: as §1

doramapimod = compound: Cc1ccc(-n2nc(C(C)(C)C)cc2NC(=O)Nc2ccc(OCCN3CCOCC3)c3ccccc23)cc1 [doramapimod]
Outline: as §1

bafetinib = compound: Cc1ccc(NC(=O)c2ccc(CN3CC[C@H](N(C)C)C3)c(C(F)(F)F)c2)cc1Nc1nccc(-c2cncnc2)n1 [bafetinib]
Outline: as §1

[2] = compound: Cc1cccc(CC(=O)N2CCc3c2ccc(-c2cn(C)c4ncnc(N)c24)c3F)n1
Outline: as §1

nilotinib = compound: Cc1cn(-c2cc(NC(=O)c3ccc(C)c(Nc4nccc(-c5cccnc5)n4)c3)cc(C(F)(F)F)c2)cn1 [nilotinib]
Outline: as §1

[3] = compound: Cc1nc(Nc2n[nH]c3c2CN(C(=O)N[C@H](CN(C)C)c2ccccc2)C3(C)C)c2sccc2n1
Outline: as §1

[4] = compound: Cc1ncc(-c2ccnc(Nc3ccc(S(C)(=O)=O)cc3)n2)n1C(C)C
Outline: as §1

quisinostat = compound: Cn1cc(CNCC2CCN(c3ncc(C(=O)NO)cn3)CC2)c2ccccc21 [quisinostat]
Outline: as §1

tipifarnib = compound: Cn1cncc1[C@@](N)(c1ccc(Cl)cc1)c1ccc2c(c1)c(-c1cccc(Cl)c1)cc(=O)n2C [tipifarnib]
Outline: as §1

[5] = compound: NC(=O)Nc1cc(-c2cccc(F)c2)sc1C(=O)N[C@H]1CCCNC1
Outline: as §1

[6] = compound: NC(=O)c1cnc(N[C@@H]2CCCC[C@@H]2N)nc1Nc1cccc(-n2nccn2)c1
Outline: as §1

[7] = compound: NC1(c2ccc(-c3nc4ccn5c(=O)[nH]nc5c4cc3-c3ccccc3)cc2)CCC1
Outline: as §1

duvelisib = compound: C[C@H](Nc1ncnc2nc[nH]c12)c1cc2cccc(Cl)c2c(=O)n1-c1ccccc1 [duvelisib]
Outline: as §1

tozasertib = compound: Cc1cc(Nc2cc(N3CCN(C)CC3)nc(Sc3ccc(NC(=O)C4CC4)cc3)n2)n[nH]1 [tozasertib]
Outline: as §1

dasatinib = compound: Cc1nc(Nc2ncc(C(=O)Nc3c(C)cccc3Cl)s2)cc(N2CCN(CCO)CC2)n1 [dasatinib]
Outline: as §1

[8] = compound: Cn1cc(-c2ccc3c(c2)CCN3C(=O)Cc2cccc(C(F)(F)F)c2)c2c(N)ncnc21
Outline: as §1

ACYP2 (UniProt P14621)
log2 fold change (lapatinib): inactive: -0.049
log2 fold change (pictilisib): inactive: -0.065
log2 fold change (crizotinib): inactive: 0.082
log2 fold change [1]: inactive: 0.217
log2 fold change (gandotinib): inactive: -0.076
log2 fold change (doramapimod): inactive: -0.024
log2 fold change (bafetinib): inactive: -0.002
log2 fold change [2]: inactive: -0.105
log2 fold change (nilotinib): inactive: -0.008
log2 fold change [3]: inactive: -0.079
log2 fold change [4]: inactive: 0.097
log2 fold change (quisinostat): inactive: -0.047
log2 fold change (tipifarnib): inactive: 0.009
log2 fold change [5]: inactive: -0.009
log2 fold change [6]: inactive: -0.026
log2 fold change [7]: inactive: 0.019

AFG1L (UniProt Q8WV93)
log2 fold change (lapatinib): inactive: 0.056
log2 fold change (crizotinib): inactive: -0.085
log2 fold change (duvelisib): inactive: -0.027
log2 fold change (tozasertib): inactive: -0.158
log2 fold change (doramapimod): inactive: -0.152
log2 fold change (nilotinib): inactive: -0.004
log2 fold change [3]: inactive: 0.03
log2 fold change (dasatinib): inactive: 0.008
log2 fold change [4]: inactive: 0
log2 fold change [8]: inactive: 0
log2 fold change (quisinostat): inactive: -0.044
log2 fold change (tipifarnib): inactive: -0.034
log2 fold change [5]: inactive: -0.061
log2 fold change [6]: inactive: 0.035
log2 fold change [7]: inactive: 0.035

ACSL6 isoform 1 (UniProt Q9UKU0)
log2 fold change (lapatinib): inactive: -0.027
log2 fold change (pictilisib): inactive: 0.055
log2 fold change [1]: inactive: 0.038
log2 fold change (gandotinib): inactive: -0.117
log2 fold change (bafetinib): inactive: -0.151
log2 fold change [2]: inactive: 0.056
log2 fold change [6]: inactive: 0.031
log2 fold change [7]: inactive: 0.043

AFAP1L1 (UniProt Q8TED9)
log2 fold change (lapatinib): inactive: -0.104
log2 fold change (pictilisib): inactive: -0.218
log2 fold change (crizotinib): inactive: 0.08
log2 fold change (duvelisib): inactive: 0.073
log2 fold change (tozasertib): inactive: -0.036
log2 fold change (doramapimod): inactive: -0.035
log2 fold change (bafetinib): inactive: -0.017
log2 fold change (dasatinib): inactive: 0.029
log2 fold change [8]: inactive: -0.112
log2 fold change (quisinostat): inactive: 0.226
log2 fold change [5]: inactive: 0.007
log2 fold change [6]: inactive: 0.123
log2 fold change [7]: inactive: -0.079

AIMP2 isoform 2 (UniProt Q13155)
log2 fold change (lapatinib): inactive: -0.058
log2 fold change (pictilisib): inactive: -0.148
log2 fold change (crizotinib): inactive: -0.036
log2 fold change (doramapimod): inactive: -0.019
log2 fold change (bafetinib): inactive: -0.082
log2 fold change (quisinostat): inactive: -0.106
log2 fold change [5]: inactive: 0.067
log2 fold change [6]: inactive: 0.017

AIF1 (UniProt P55008)
log2 fold change (lapatinib): inactive: -0.037
log2 fold change (crizotinib): inactive: -0.046
log2 fold change [1]: inactive: 0.171
log2 fold change (duvelisib): inactive: 0.015
log2 fold change (gandotinib): inactive: -0.222
log2 fold change (doramapimod): inactive: 0.009
log2 fold change [2]: inactive: -0.148
log2 fold change (nilotinib): inactive: 0.03
log2 fold change [3]: inactive: -0.045
log2 fold change (dasatinib): inactive: -0.017
log2 fold change [4]: inactive: 0.018
log2 fold change [8]: inactive: 0.026
log2 fold change (quisinostat): inactive: -0.029
log2 fold change (tipifarnib): inactive: 0.101
log2 fold change [5]: inactive: 0.07
log2 fold change [6]: inactive: -0.031
log2 fold change [7]: inactive: 0.174

AHSP (UniProt Q9NZD4)
log2 fold change (lapatinib): inactive: 0.054
log2 fold change (pictilisib): inactive: 0.025
log2 fold change [1]: inactive: 0.321
log2 fold change (gandotinib): inactive: -0.086
log2 fold change (tozasertib): inactive: 0.033
log2 fold change (bafetinib): inactive: -0.152
log2 fold change [2]: inactive: -0.105
log2 fold change (nilotinib): inactive: 0.207
log2 fold change [3]: inactive: -0.005
log2 fold change [4]: inactive: 0.226
log2 fold change (tipifarnib): inactive: -0.065
log2 fold change [6]: inactive: -0.008

AGFG2 (UniProt O95081)
log2 fold change (lapatinib): inactive: 0.002
log2 fold change (crizotinib): inactive: 0.111
log2 fold change (duvelisib): inactive: 0.041
log2 fold change (tozasertib): inactive: -0.02
log2 fold change (doramapimod): inactive: -0.107
log2 fold change (dasatinib): inactive: 0.018
log2 fold change [8]: inactive: 0.036
log2 fold change (quisinostat): inactive: 0.04
log2 fold change [5]: inactive: 0.084
log2 fold change [6]: inactive: 0.009
log2 fold change [7]: inactive: -0.137

ADAMTSL4 isoform 3 (UniProt Q6UY14)
log2 fold change (lapatinib): inactive: 0.005
log2 fold change (pictilisib): inactive: 0.023
log2 fold change (crizotinib): inactive: -0.052
log2 fold change [1]: inactive: -0.037
log2 fold change (duvelisib): inactive: 0.1
log2 fold change (gandotinib): inactive: 0.066
log2 fold change (doramapimod): inactive: 0.157
log2 fold change (bafetinib): inactive: 0.015
log2 fold change [2]: inactive: 0.092
log2 fold change (nilotinib): inactive: 0.018
log2 fold change [3]: inactive: -0.064
log2 fold change (dasatinib): inactive: -0.041
log2 fold change [4]: inactive: 0.015
log2 fold change [8]: inactive: -0.085
log2 fold change (quisinostat): inactive: -0.033
log2 fold change (tipifarnib): inactive: -0.036
log2 fold change [5]: inactive: 0.042
log2 fold change [6]: inactive: -0.055
log2 fold change [7]: inactive: -0.021

AKAP17A (UniProt Q02040)
log2 fold change (lapatinib): inactive: -0.167
log2 fold change (crizotinib): inactive: -0.004
log2 fold change (duvelisib): inactive: -0.03
log2 fold change (doramapimod): inactive: 0.026
log2 fold change (dasatinib): inactive: -0.096
log2 fold change [8]: inactive: 0.079
log2 fold change (quisinostat): inactive: 0.039
log2 fold change [5]: inactive: -0.098
log2 fold change [6]: inactive: 0
log2 fold change [7]: inactive: -0.312

AKR7L (UniProt Q8NHP1)
log2 fold change (lapatinib): inactive: 0.052
log2 fold change (crizotinib): inactive: -0.033
log2 fold change (duvelisib): inactive: -0.101
log2 fold change (doramapimod): inactive: -0.156
log2 fold change (nilotinib): inactive: -0.128
log2 fold change [3]: inactive: 0.273
log2 fold change (dasatinib): inactive: -0.111
log2 fold change [4]: inactive: -0.055
log2 fold change [8]: inactive: -0.125
log2 fold change (quisinostat): inactive: 0.154
log2 fold change (tipifarnib): inactive: -0.132
log2 fold change [5]: inactive: 0.055
log2 fold change [6]: inactive: 0.006

ADK, A0A5F9ZH76
log2 fold change (lapatinib): inactive: -0.013
log2 fold change (pictilisib): inactive: -0.074
log2 fold change (bafetinib): inactive: 0.147
log2 fold change (nilotinib): inactive: -0.267
log2 fold change [3]: inactive: 0.089
log2 fold change [4]: inactive: 0.065
log2 fold change (tipifarnib): inactive: 0.487
log2 fold change [6]: inactive: -0.083

AK5 (UniProt Q9Y6K8)
log2 fold change (lapatinib): inactive: -0.032
log2 fold change (pictilisib): inactive: 0.021
log2 fold change (crizotinib): inactive: 0.046
log2 fold change (duvelisib): inactive: 0.022
log2 fold change (tozasertib): inactive: -0.008
log2 fold change (doramapimod): inactive: -0.039
log2 fold change (bafetinib): inactive: -0.002
log2 fold change (nilotinib): inactive: 0.012
log2 fold change [3]: inactive: 0.003
log2 fold change (dasatinib): inactive: -0.007
log2 fold change [4]: inactive: -0.056
log2 fold change [8]: inactive: -0.009
log2 fold change (quisinostat): inactive: 0.072
log2 fold change (tipifarnib): inactive: 0.042
log2 fold change [5]: inactive: -0.015
log2 fold change [6]: inactive: 0.047
log2 fold change [7]: inactive: -0.044

ADD1 isoform 4 (UniProt P35611)
log2 fold change (lapatinib): inactive: -0.006
log2 fold change (pictilisib): inactive: -0.168
log2 fold change [1]: active: -0.745
log2 fold change (duvelisib): inactive: 0.029
log2 fold change (gandotinib): inactive: 0.556
log2 fold change (tozasertib): inactive: -0.044
log2 fold change (bafetinib): inactive: 0.097
log2 fold change [2]: inactive: 0.563
log2 fold change (dasatinib): inactive: -0.017
log2 fold change [8]: inactive: -0.075
log2 fold change [6]: inactive: -0.109
log2 fold change [7]: inactive: -0.274
